Source: PubChem BioAssay AID504444 (National Center for Advancing Translational Sciences (NCATS), 2011)
Among all 360,000 compounds or so, about 7,500 (2.1%) were called active. The inconclusive results got no clear call from the source; some entries with a clear call stand among them for comparison. The call rests on the fitted dose curve; in most records, active means well fitted inhibition curve with a large enough effect; inconclusive means small, poorly fitted or top-dose-only effect, or effect the other way; inactive means flat fitted curve, though single readings scatter. Potencies beside an inconclusive call are fits to weak or partial responses and may not hold up.

assay: Nrf2 qHTS screen for inhibitors; settings: A549 ARE-Fluc reporter, luciferase luminescence, 18-24 h; activity change, negative = inhibition: at 46 µM (top of the series); further: nearly all actives have a fitted effect of over 60% in size
How it was run: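 A549 ARE_Fluc cells (5000/well, 5% FBS OPTI-MEM) pre-incubated 2 h, then treated with compounds 18-24 h at 37C/5% CO2 in concentration-response. CellTiter-Fluor viability read first; BugLite luciferase luminescence after 15 min at room temperature gives Nrf2 activity.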
On the % scale 0 is the no-effect control and ±100 the full control effect; potency means the concentration at half of the fitted maximal effect.

SMILES	Potency	activity change, negative = inhibition
Cc1ccc(C)c(N2CCN(C(=O)CCn3c(=O)c4cccn4c4cccnc43)CC2)c1	inconclusive: 0.0184 µM [activator, full curve, poor fit]	
Cc1ccccc1CN1CCc2c(OCC(=O)N3CCCc4ccccc43)cccc2C1=O	inconclusive: 29.1 µM [falling, single point]	
O=C(NCCCn1ccnc1)Nc1ccc(Cl)cc1Cl	inconclusive: 29.1 µM [falling, single point]	
CC1=C(C(=O)Nc2ccc(Cl)cc2)C(C(C)C)n2nc(SCc3ccc(Cl)cc3)nc2N1 (stereo not given)		inactive: 1.49%
CCOc1c2ccc(C(=O)NCCc3cccs3)cc2nn1CC	inconclusive: 16.4 µM [activator, partial curve]	
O=C(NCC1CCN(Cc2cccc(Cl)c2)CC1)c1cc2ccc3cccnc3c2[nH]1	inconclusive: 11.6 µM [activator, partial curve, poor fit]	
COC(=O)c1ccccc1NC(=O)CSc1nc(-c2ccco2)cc(C(F)(F)F)n1	inconclusive: 20.6 µM [falling, single point]	
O=C1CC(/C=C/c2ccco2)=Nc2ccccc2N1		inactive: 2.18%
O=C1CCc2cc(S(=O)(=O)N3CCN(c4ccccc4F)CC3)ccc2N1	inconclusive: 25.9 µM [falling, single point]	
O=C(Nc1nccs1)c1ncc(Cl)c(Cl)c1Cl	inconclusive: 8.2 µM [activator, partial curve]	
CC1(C)CC2CC(C)(CN2S(=O)(=O)c2ccc(C(=O)Nc3cccc(S(=O)(=O)N4CCOCC4)c3)cc2)C1 (stereo not given)	active: 2.31 µM	
O=C(CCNS(=O)(=O)c1ccc(OC(F)(F)F)cc1)N1CCN(S(=O)(=O)c2cccc(F)c2)CC1	inconclusive: 29.1 µM [falling, single point]	
O=C(Nc1ccncc1)c1cc(S(=O)(=O)N2CCCC2)ccc1Cl	inconclusive: 23.1 µM [falling, single point]	
C[C@@H](NC(=O)c1nc[nH]c1C(=O)N1CCN(c2ccccc2)CC1)c1ccccc1	inconclusive: 23.1 µM [activator, single point]	
CC(C)(C)c1ccc(-n2ncc3c2CCCC3NC(=O)c2ccncc2)cc1 (stereo not given)	active: 2.59 µM	
COc1ccc(N2CCN(C(=O)c3ccc(Oc4ccc(C(F)(F)F)cn4)cc3)CC2)cc1	inconclusive: 20.6 µM [falling, single point]	
Cc1ccc(CS(=O)(=O)c2ncc(Cl)c(C(=O)Nc3nnc(C)s3)n2)cc1	inconclusive: 29.1 µM [activator, single point]	
O=C(CSc1nn(-c2ccc(Cl)cc2)c(=S)s1)N1CCN(C(=O)c2ccco2)CC1	inconclusive: 32.6 µM [falling, single point]	
COc1ccc(-c2nc(C(=O)NCCCN3CCOCC3)cc3c2[nH]c2ccccc23)cc1OC	inconclusive: 32.6 µM [falling, single point]	
CCCN1CCN(C(=O)c2oc3ccccc3c2NC(=O)COc2ccc(OC)cc2)CC1	inconclusive: 29.1 µM [falling, single point]	
CCNC(=O)NC(=O)COC(=O)c1ccccc1SCC(=O)NC(=O)NCC	inconclusive: 2.91 µM [activator, full curve]	
CC(C)CCC(CCNCc1ccccn1)c1ccc2c(c1)OCO2 (stereo not given)		inactive: 19.3%

SMILES	Potency	activity change, negative = inhibition
CC(C)(C)n1ncc2c(=O)n(CC(=O)NC3CCCCC3)cnc21	inconclusive: 10.3 µM [activator, partial curve]	
c1nc(NCCc2cnc[nH]2)c2ccc(-c3ccc4c(c3)OCO4)cc2n1		inactive: 11.3%
CCCN(CC(=O)Nc1ccccc1C)C(=O)Cc1c(C)nc2ccccc2c1C		inactive: -18.3%
CCOC(=O)c1c(CN2CCCCC2)oc2ccc(O)cc12		inactive: -0.786%
CN(C)S(=O)(=O)c1ccc(S(=O)(=O)N2CCCC(C(=O)NC3CC3)C2)cc1 (stereo not given)	active: 20.6 µM	
Cc1cccc(Nc2nc(-c3ccc(F)cc3)cs2)n1	inconclusive: 2.31 µM [activator, full curve]	
CCOc1ccc(C2=Nc3ccccc3C(c3ccc(N4CCOCC4)cc3)=NN2)cc1		inactive: -0.623%
O=C(/C=C/c1ccc([N+](=O)[O-])cc1)Nc1cccc(S(=O)(=O)NC2=NCCCCC2)c1	active: 18.4 µM	
Cc1onc(-c2ccccc2)c1C(=O)OCC(=O)Nc1ccc(C#N)cc1	inconclusive: 0.366 µM [falling, full curve, poor fit]	
CCSc1nnc(NC(=O)Cc2cc(OC)c(OC)c(OC)c2)s1	inconclusive: 25.9 µM [falling, partial curve, poor fit]	
CCNc1nc(NCC)nc(NC(N)=S)n1		inactive: 5.9%
O=[N+]([O-])c1cc(CN2CCCCCC2)ccc1O		inactive: 3.02%
COc1ccc(NC(=O)CN(C)S(=O)(=O)c2cnc[nH]2)cc1Cl	inconclusive: 6.51 µM [activator, partial curve, poor fit]	
CCC(=O)Nc1nc2cc(OC)ccc2s1	inconclusive: 18.4 µM [activator, partial curve, poor fit]	
CCOC(=O)c1cc2sc(C)cc2n1CC(=O)N(CC)CC	inconclusive: 2.06 µM [falling, full curve]	
O=C(CN1C(=O)NC2(CCCc3ccccc32)C1=O)Nc1cccc(S(=O)(=O)N2CCCCC2)c1 (stereo not given)	inconclusive: 16.4 µM [falling, single point]	
Cn1nc(C(=O)Nc2ccccc2N2CCCC2)c2ccccc2c1=O	inconclusive: 14.6 µM [falling, partial curve, poor fit]	
COc1ccc(CCNC(=O)c2ccccc2NC(=O)CN2CCN(c3ccccc3O)CC2)cc1	inconclusive: 14.6 µM [falling, partial curve]	
Cc1ccc2nc(-c3ccc(N)cc3)sc2c1	inconclusive: 0.58 µM [activator, full curve]	
CCCCOC(=O)c1ccc(NC(=O)c2cnc3n(c2=O)CCS3)cc1	inconclusive: 29.1 µM [falling, single point]	
O=C(NCCSCc1ccco1)c1ccc(CN2CCOCC2)cc1	inconclusive: 20.6 µM [activator, partial curve]	
C/C(=N\NC(=O)CSCc1ccccc1Br)c1cccc([N+](=O)[O-])c1	inconclusive: 2.59 µM [falling, partial curve, poor fit]	

SMILES	Potency	activity change, negative = inhibition
O=[N+]([O-])c1ccc(-c2cn(-c3ccccc3F)c(=S)[nH]2)cc1	inconclusive: 1.16 µM [activator, full curve]	
O=C(O)c1ccc(N/N=C/c2ccc(-c3ccccc3)cc2)cc1	inconclusive: 3.66 µM [activator, full curve]	
COc1cc(OCc2ccccc2)c(C(=O)/C=C/c2ccc3c(c2)OCO3)c(OC)c1OC	active: 20.6 µM	
O=C(Nc1ccc(Cc2ccncc2)cc1)C1CCC(N2C(=O)C3C4C=CC(C5CC45)C3C2=O)CC1 (stereo not given)	active: 18.4 µM	
CC(C)CNC(=O)c1cccc(NC(=O)c2ccc(NC(=O)c3ccco3)cc2)c1	inconclusive: 6.51 µM [falling, partial curve, poor fit]	
Oc1ccc(CN2CCCCC2)c2cccnc12	inconclusive: 25.9 µM [falling, single point]	
N#CC(=C1CCCC1)c1nc(-c2ccccc2)cs1	inconclusive: 8.2 µM [activator, partial curve]	
Cc1ccc(N2CCN(C(=O)c3cc(S(=O)(=O)N4CCCCC4)c[nH]3)CC2)c(C)c1	inconclusive: 29.1 µM [falling, single point]	
Cc1ccc2nc(Cl)c3cc(C(=O)NC4CCC(C)CC4)sc3c2c1 (stereo not given)		inactive: -2.83%
CCOc1ccc(OCc2ccc(C(=O)OCc3ccccn3)o2)cc1	inconclusive: 2.91 µM [activator, full curve]	
Cc1ccccc1/C=C/c1cccc[n+]1C	active: 1.84 µM	
Cc1nc(Nc2ccc(S(=O)(=O)N3CCCCC3C)cc2)c2nnn(Cc3ccccc3)c2n1 (stereo not given)	inconclusive: 20.6 µM [falling, partial curve]	
O=C(c1cc2cc(Cl)ccc2[nH]1)N1CCc2ccccc2C1	inconclusive: 0.103 µM [falling, full curve, poor fit]	
Cc1ccc(NC(=O)CCNS(=O)(=O)c2cc(Br)cnc2N)cc1Cl	inconclusive: 29.1 µM [falling, single point]	
N/C(=N\OC(=O)COc1ccccc1Cl)c1ccccn1	inconclusive: 2.59 µM [activator, partial curve]	
Cc1ccc(SCc2[nH]nc3c2C2(C(=O)Nc4ccc([N+](=O)[O-])cc42)C(C#N)=C(N)O3)cc1 (stereo not given)	inconclusive: 29.1 µM [activator, partial curve, poor fit]	
CC(=O)c1ccc(C(=O)N2CCc3c([nH]c4ccccc34)C2c2cccc(C)n2)s1 (stereo not given)	inconclusive: 29.1 µM [falling, single point]	
CCc1ccc(N(C(=O)c2snc(C(N)=O)c2N)C(C(=O)NCCC(C)C)c2c[nH]c3ccccc23)cc1 (stereo not given)	inconclusive: 18.4 µM [falling, single point]	
COc1ccc(NC(=O)c2ccc(Cl)c(S(=O)(=O)N3CC(C)OC(C)C3)c2)cn1 (stereo not given)	active: 2.59 µM	
CC(=O)Cc1nsc(NC(=O)c2ccc(-c3ccc(Cl)c(C(F)(F)F)c3)o2)n1	inconclusive: 13 µM [falling, partial curve]	
O=C(CN1CCCc2ccccc21)NC(=O)NCc1ccco1	inconclusive: 0.0073 µM [falling, full curve, poor fit]	

At a glance, some entries already given:
SMILES	Potency	activity change, negative = inhibition
Cc1ccc(N2CCN(C(=O)c3cc(S(=O)(=O)N4CCCCC4)c[nH]3)CC2)c(C)c1	inconclusive: 29.1 µM [falling, single point]	
Cc1ccc2nc(Cl)c3cc(C(=O)NC4CCC(C)CC4)sc3c2c1 (stereo not given)		inactive: -2.83%
